Test results as given in paper PMC7592376, “Design and synthesis of multi-target directed 1,2,3-triazole-dimethylaminoacryloyl-chromenone derivatives with potential use in Alzheimer's disease” (BMC Chemistry, 2020).

By UniProt entry, the sequences of proteins in these tests, tags left out. Residues count along the entry.
UniProt P05067, 672-713 limits assumed: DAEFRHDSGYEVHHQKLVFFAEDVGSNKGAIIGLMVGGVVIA

Biological target: Aβ1-42 (Homo sapiens, UniProt P05067)
Assay: biochemical
Details: read-out: % Inhibition self-induced Aβ1–42 aggregation
Procedure: Inhibition of Aβ1-42 self-aggregation was measured by ThT fluorescence assay. The details of the method were reported in our previous study. To study Aβ42 aggregation inhibition, a reported method, based on the fluorescence emission of ThT was followed. Briefly, the mixtures of Aβ1-40 peptide (Bachem company, Switzerland) and AChE (Sigma, Electrophorus electricus), in the presence or absence of the test inhibitor were incubated for 24 h at room temperature.

COc1cc2c(cc1OC)C(=O)C(CC1CCN(Cc3ccccc3)CC1)C2 (stereo not shown) [donepezil]
inhibition at 10 µM: 18.1 ± 1.4%
